The values below come from publication PMC6609874, “MeABL5, an ABA Insensitive 5-Like Basic Leucine Zipper Transcription Factor, Positively Regulates MeCWINV3 in Cassava (Manihot esculenta Crantz)”.

Where a protein sequence is shown, tags need not be part of it.

This data set addresses T1, MeABL5 (Manihot esculenta Crantz) (UniProt A0A411G151).
T1 sequence: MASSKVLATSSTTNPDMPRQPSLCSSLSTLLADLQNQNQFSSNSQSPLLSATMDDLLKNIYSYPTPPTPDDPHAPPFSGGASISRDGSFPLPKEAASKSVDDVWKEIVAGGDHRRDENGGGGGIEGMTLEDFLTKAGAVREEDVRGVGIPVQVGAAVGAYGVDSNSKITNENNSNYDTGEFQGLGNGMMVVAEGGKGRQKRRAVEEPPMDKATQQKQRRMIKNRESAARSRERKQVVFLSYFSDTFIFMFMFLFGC
Nature of the data set: EMSA. The following applies: 100-250 ng protein, 500 ng DNA, EMSA kit (Invitrogen), room temperature 30 min, 0-250 ng protein, PAGE with SYBR Green/SYPRO Ruby stain, salt and pH not stated, recombinant protein, label: none (SYBR Green stain).

Consider “ATCATTCTCACAGGACATCAAATTTATATTAGACTACCTTATTTTAATTTCATTACCTAAATAATTAATATTAATAATTAAACTTTAGTGTTTGGAATAATTAGCATTTTGGATTTTATCACTTATTTTCTTTATGTGAGAATGAGATGGATACCTTTCTTGCTATAAATTCTAAATATCCCTTTTGACTTTGTTAATTTATTTTATAAAAAAAATTTAATTACAAATTATTATTATGTATATTTAAATTATACATATTAAAAATAAATAATTTTTAATAATATCTTTTAATAAAATTAAATATTTTTTAAATCAAAATTAAATCTTAATTAATAAAATAAAGTTTTAATATATATTCAATTTACTATGCTGTTCCTTACGCTAAAATGAGCGGCATGCAATCGTTGACATGTGAGTATTTGACGTATCCACGTGGGAAAGGGAAGAAAAACAACATTGAATAACCTAATTTTTGTCTAAATTCAATTTACATAAAAAATTCAAAATATAAATAAGAGTGTTTTATGTGATTTTAATTATATTAATAAAATCAAATTTCTTTTTTTATTTTCATATTTAATTATTTTAATAACATTATATTTAGAAATATATAGAAATTGGGTTCACATGGTGAAGCTGTAAGACAACTAGCATGGAAATAATTAAATAATTGTTTTTTTTTTTTTCAAAATCCACCCAAAAATCATTAATTGGTTGATTTACTGCCTTTGATAATTTGTCCCCTCTGGCCTATCAGCTGCTGTTAGATAAAATAAAATATTCTATATATAAAATTTTTTTAAAAATATATTATTATTCCAGAAATAAAGATATTTTTATATTACCTTAAACACATTGACTTTGACTTCAAAAACCAGTTTTCTTGGGTGCTGCTGTAACTTAGAAAGTGAAATTGAAATAAATAAATAGGATGGTTACCTGATTTTGAGAACTTTTACTTCATTTTTGTTTTTCATATTTGAAAAAAATGAGAAAAACTAGAAAAAATAATATTCCATGTAGACTAATCTTTTCATGCATCCACCAATTTTCTCCATTAAGATAAAAATTTCTACTCTCTGCCACCAAACTCCTCTATATAAGTTCCTTGGGGAGTTGCAGACATGTCTCACTTCTCACCTTATTCAATCAAAGGAGCT (double strand) [MeCWINV3 promoter 1,160 bp]”, for which the binding result was “binds”.
